Where “and” joins values, the source holds several entries; their conditions need not be identical. Equal entries are not always repeated. Some of the results follow. The main result of the screen is listed elsewhere. These columns were measured beside it and carry no call. The list favours compounds with an active or inconclusive main result. Potencies come from curve fits of mixed quality, noted in brackets.
Assay: qHTS Assay for Modulators of Lamin A Splicing
Conditions: HeLa LMNA splicing GFP/RFP minigene ratio, 48 h
Procedure, shortened: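 S3 HeLa cells stably expressing lamin A-EGFP splicing minigene plus DsRed2, 600 cells/well, 48 h compound exposure at 37C. Laser-scanning cytometry; analysed as GFP (500-530 nm)/RFP (575-640 nm) total intensity ratio; 0.5% DMSO vehicle.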

[1] = measured here: GFP splicing reporter channel
[2] = measured here: RFP viability control channel

| Structure (SMILES) | AC50 [1] | AC50 [2] |
| --- | --- | --- |
| CN1CCN(C(CNC(=O)C(=O)Nc2ccc(F)cc2)c2cccnc2)CC1 (configuration not stated) | 11.2 µM [falling, partial curve] | 15.8 µM [falling, partial curve, poor fit] |
| CN1CCN(CCCN2c3ccccc3Sc3ccc(Cl)cc32)CC1 | 1.58 µM [rising, partial curve] and 1.78 µM [rising, partial curve, poor fit] |  |
| COc1ccc(-c2nc(N)ncc2-c2csc(C)n2)c(O)c1OC |  | 1.26 µM [rising, single point] |
| CN1/C(=C\C(=O)c2ccco2)C(C)(C)c2ccccc21 | 35.5 µM [rising, single point] | 28.2 µM [rising, single point] |
| Cc1cc(NC(=O)Cc2csc(-c3ccccc3)n2)ccc1Br |  | 22.4 µM [rising, single point] |
| CN(Cc1ccccc1)C(=S)Nc1ccc(OC(F)F)cc1 |  | 15.8 µM [rising, single point] |
| c1ccc(CNc2nc(NCc3ccccc3)c3ccccc3n2)cc1 |  | 12.6 µM [falling, partial curve] |
| Cc1ccc(NS(=O)(=O)c2ccc(NC(=O)C3CCCO3)cc2)cc1 (configuration not stated) |  | 12.6 µM [rising, partial curve] |
| CCc1ccc(CNC(=O)c2ccc3c(c2)nc2n3CCOC2)cc1 | 0.0282 µM [rising, full curve, poor fit] |  |
| O=C(NNC(=S)NC(=O)C12CC3CC(CC(C3)C1)C2)c1ccncc1 |  | 35.5 µM [rising, single point] |
| CC1CCC(NC(=O)c2ccc3c(c2)N(Cc2cccc(F)c2)C(=O)c2ccccc2S3)CC1 (configuration not stated) |  | 14.1 µM [rising, single point] |
| CNC(=S)N1CCN(c2c(F)cc3c(=O)c(C(=O)O)cn(C4CC4)c3c2OC)CC1C (configuration not stated) |  | 4.47 µM [rising, partial curve, poor fit] |
| CC(/C=C1\SC(=S)N(CC(=O)O)C1=O)=C\c1ccccc1 |  | 31.6 µM [rising, single point] |
| O=C(Nc1ccc(C(F)(F)F)cc1)C1CCCN1S(=O)(=O)c1cccc2cccnc12 (configuration not stated) |  | 8.91 µM [rising, partial curve, poor fit] |
| O=C(NC(=O)c1ccccc1)OCCN1C(=O)c2ccccc2C1=O | 0.0708 µM [rising, full curve, poor fit] |  |
| O=C(c1ccc(S(=O)(=O)c2ccccc2)cc1)N1CCc2ccccc2C1 |  | 14.1 µM [rising, partial curve] |
| COc1ccc(NC(=O)c2oc3c(c2C)-c2nn(Cc4c(F)cccc4Cl)cc2CC3)c(OC)c1 | 22.4 µM [rising, partial curve, poor fit] | 12.6 µM [rising, partial curve] |
| CCOCCCNCc1ccc(OCc2ccccc2Cl)cc1 |  | 14.1 µM [rising, single point] |
| CCCC(=O)O[C@H]1C[C@@H](C)N(C(=O)c2ccccc2)c2ccc(C)cc21 | 31.6 µM [rising, single point] | 35.5 µM [rising, single point] |
| Cc1ccc(NC(=O)C(=O)NCC(c2cccnc2)N2CCN(C)CC2)cc1C (configuration not stated) | 8.91 µM [falling, partial curve] | 1.78 µM [falling, full curve] |
| COc1ccc(NS(=O)(=O)c2ccc3nc(COc4ccc5ccccc5c4)[nH]c3c2)cc1 | 35.5 µM [falling, single point] |  |
| O=C(CSc1nc(=O)[nH]c2c1CCCC2)Nc1cc(C(F)(F)F)ccc1Cl | 14.1 µM [falling, partial curve, poor fit] | 35.5 µM [falling, partial curve, poor fit] |
| Cc1cc(C)n(-c2nnc(C)n2/N=C/c2cc(Br)ccc2OCc2ccccc2)n1 | 10 µM [rising, single point] | 11.2 µM [rising, single point] |
| CCc1nc(N)c(C#N)c(-c2ccc(O)c(OC)c2)c1C |  | 35.5 µM [rising, single point] |
| O=C1CCSC2(C(=O)N(Cc3ccc(F)cc3)c3ccccc32)N1c1ccccc1 (configuration not stated) |  | 31.6 µM [falling, single point] |
| O=C(CSc1nnc(-c2n[nH]c3ccccc23)n1-c1ccccc1)Nc1ccccc1Cl | 0.178 µM [rising, full curve, poor fit] | 14.1 µM [rising, partial curve] |
| O=C(Nc1ccc(O)cc1)c1cc(S(=O)(=O)N2CCCC2)ccc1Cl |  | 12.6 µM [rising, partial curve] |
| CC(C)(C)c1ccc(C(=O)NCC(=O)OCC(=O)c2ccc3c(c2)-c2ccccc2C3)cc1 | 11.2 µM [falling, partial curve, poor fit] |  |

A different layout for four compounds above:
Structure (SMILES) | AC50 [1] | AC50 [2]
CN(Cc1ccccc1)C(=S)Nc1ccc(OC(F)F)cc1 |  | 15.8 µM [rising, single point]
c1ccc(CNc2nc(NCc3ccccc3)c3ccccc3n2)cc1 |  | 12.6 µM [falling, partial curve]
Cc1ccc(NS(=O)(=O)c2ccc(NC(=O)C3CCCO3)cc2)cc1 (configuration not stated) |  | 12.6 µM [rising, partial curve]
CCc1ccc(CNC(=O)c2ccc3c(c2)nc2n3CCOC2)cc1 | 0.0282 µM [rising, full curve, poor fit] | 

(list continues)

| Structure (SMILES) | AC50 [1] | AC50 [2] |
| --- | --- | --- |
| COc1cccc(/C=N/Nc2nc(Nc3ccc([N+](=O)[O-])cc3)nc(N3CCCC3)n2)c1O |  | 6.31 µM [falling, partial curve] |
| O=C(Nc1nnc(C2CC2)s1)c1cc(-c2ccccc2)nn1-c1ccccc1 | 10 µM [rising, partial curve] | 15.8 µM [rising, single point] |
| CCC(NC(=O)Nc1nnc(C(F)(F)F)s1)(C(F)(F)F)C(F)(F)F | 7.08 µM [falling, partial curve] | 7.94 µM [falling, partial curve] |
| Cc1c(C)c2c(c(C)c1O)CCC(C)(CN1CCN(c3cc(N4CCCC4)nc(N4CCCC4)n3)CC1)O2 (configuration not stated) | 12.6 µM [falling, partial curve] | 12.6 µM [falling, partial curve] |
| O=C1c2ccccc2C(=O)c2c1ccc(O)c2O | 1.26 µM [falling, single point] |  |
| O=C(c1ccccc1)N1CCC(c2nc(-c3ccc(S(=O)(=O)N4CCOCC4)cc3)no2)CC1 |  | 11.2 µM [rising, partial curve] |
| O=C1CC(=C(c2ccccc2)c2ccccc2)C(=O)N1CCCCN1CCN(c2ccccc2)CC1 |  | 12.6 µM [rising, single point] |
| Cc1cccc(CC(=O)NC2CC(=O)N(c3cccc(F)c3)C2)c1 (configuration not stated) | 2.51 µM [falling, partial curve, poor fit] | 3.16 µM [falling, partial curve, poor fit] |
| C=CCNc1nc(-c2ccccn2)nnc1-c1ccccc1 |  | 4.47 µM [rising, full curve] |
| Cc1occc1-c1nnc(SCC(=O)Nc2ccccc2-c2ccccc2)n1C | 17.8 µM [rising, partial curve, poor fit] | 15.8 µM [rising, partial curve, poor fit] |
| CN(C(=O)CSc1nc2ncccc2o1)c1ccc(F)cc1 |  | 20 µM [rising, single point] |
| Nc1ccccc1Nc1cc(-c2ccccc2)nn1-c1cccc(Cl)c1 | 35.5 µM [rising, single point] | 35.5 µM [rising, single point] |
| Cc1noc(C)c1CSc1nnnn1-c1ccc(Cl)cc1 |  | 20 µM [rising, partial curve] |
| Cc1ccccc1C(=O)Oc1ccc(Sc2ccc(O)cc2)cc1 | 11.2 µM [falling, single point] | 22.4 µM [falling, partial curve, poor fit] |
| N#Cc1c(NC(=O)/C=C/c2ccco2)sc2c1CCCC2 |  | 0.355 µM [rising, full curve, poor fit] |
| CCOC(=O)c1sc2nc3c(SCC(=O)O)cc(C(=O)c4ccccc4O)cn3c(=O)c2c1C | 0.2 µM [rising, full curve, poor fit] |  |
| COC(=O)c1ccc(CSc2nnc3c(n2)[nH]c2ccccc23)cc1 |  | 3.16 µM [rising, partial curve, poor fit] |
| Cc1ccc(Sc2ncnc3onc(C)c23)c(C)c1 |  | 7.94 µM [rising, partial curve, poor fit] |
| O=C(NC(=S)NCCc1ccccc1)C1CCCCC1 |  | 8.91 µM [rising, partial curve] |
| COc1cc(/C=N/Nc2nc3ccccc3[nH]2)cc(OC)c1O |  | 2.51 µM [rising, partial curve, poor fit] |
| O=C(Nc1ccc(-c2nc3ccccc3o2)cc1)c1cc(-n2cnnc2)ccc1Cl |  | 7.08 µM [rising, full curve, poor fit] |
| Cc1cc(C(=O)N2CCc3ccccc32)n(-c2ccccc2)n1 |  | 20 µM [rising, partial curve, poor fit] |
| Cc1ccc(C)c(Cn2c(=O)cc(C(F)(F)F)c3c(C)nn(C)c32)c1 | 3.98 µM [falling, full curve] |  |
| COc1ccc(C(=O)Nc2ccc(Cl)c(S(=O)(=O)Nc3ccccc3OC)c2)cc1 |  | 2.82 µM [rising, single point] |
| O=c1c2ccc([N+](=O)[O-])cc2ncn1CCOc1cccc(Br)c1 | 6.31 µM [falling, single point] | 4.47 µM [falling, partial curve] |
| CCCS(=O)(=O)c1c(S(=O)(=O)CCC)c2cc(CC)ccn2c1C(=O)OC | 22.4 µM [rising, single point] | 17.8 µM [rising, single point] |
| O=C(CC1C(=O)NCCN1Cc1ccc(F)cc1)NCCCn1cccn1 (configuration not stated) |  | 0.708 µM [falling, full curve, poor fit] |

Reference: PubChem BioAssay AID1487 (National Center for Advancing Translational Sciences (NCATS), 2009)
